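CellTiter-Glo luminescence measures how many UOK109 TFE3-RCC cells stay viable after two days of treatment. Each compound was run as a concentration series, and the potency comes from that titration. The number is the fitted AC50 for loss of viability; a lower value means a more potent compound. All of these compounds are filed inconclusive. An active call needs an area-under-curve z-score below -0.8 in all three TFE3-fusion lines, and an inactive call needs flat class-4 curves in all three.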

Values are in µM. All entries here are filed as inconclusive. Only part of the assay is shown, chiefly results filed as inconclusive. A potency from a partial, single-point or poor curve is only a rough figure. Some entries filed as inconclusive have a full curve. The first word of each remark tells which way the curve ran; it can be opposite to the aim of the assay. Activity scores are not listed here.

compound,tested on / at,fitted potency (µM),curve as filed
C#Cc1cccc(Nc2ncnc3cc(OC)c(OCCCCCCC(=O)NO)cc23)c1,active = Z-AUC below -0.8 in all three lines,0.2635,"falling, full curve"
Cc1cc(SCc2sc(-c3ccc(C(F)(F)F)c(F)c3)nc2C)ccc1OCC(=O)O,-,2.957,-
C[C@]12Cc3cn[nH]c3C[C@@H]1CC[C@@H]1[C@H]2CC[C@@]2(C)[C@H]1CC[C@]2(C)O,-,16.63,"falling, partial curve, poor fit"
COc1cc2c(Oc3ccc4[nH]c(C)cc4c3F)ncnc2cc1OCCCN1CCCC1,active = Z-AUC below -0.8 in all three lines,2.093,"falling, partial curve"
CCN(CC)CCCCNc1ncc2c(n1)N(C)C(=O)N(c1c(Cl)c(OC)cc(OC)c1Cl)C2,active = Z-AUC below -0.8 in all three lines,7.427,"falling, full curve"
OC[C@H]1O[C@@H](O[C@H]2[C@@H](O)[C@@](O)(CO)O[C@@H]2CO)[C@H](O)[C@@H](O)[C@@H]1O,active = Z-AUC below -0.8 in all three lines,9.35,"falling, partial curve"
COC(=O)c1ccc2c(C(=Nc3ccc(N(C)C(=O)CN4CCN(C)CC4)cc3)c3ccccc3)c(O)[nH]c2c1,active = Z-AUC below -0.8 in all three lines,2.957,"falling, full curve"
O=C(NCC1CCOCC1)c1cnc(Nc2ccc(Cl)cc2Cl)nc1C(F)(F)F,-,11.77,"falling, partial curve"
CCc1cc2c(cc1N1CCC(N3CCOCC3)CC1)C(C)(C)c1[nH]c3cc(C#N)ccc3c1C2=O,active = Z-AUC below -0.8 in all three lines,0.00935,"rising, full curve"
Cc1cnc(NC(=O)Nc2cc(Br)c(C)cc2OC[C@@H]2CNCCO2)cn1,active = Z-AUC below -0.8 in all three lines,5.258,"falling, full curve"
C[C@@H]1[C@@H](C(=O)C[C@H]2O[C@@H]3O[C@]4(C)CC[C@@H]5[C@H](C)CC[C@@H]([C@H]2C)[C@@]35OO4)O[C@@H]2O[C@]3(C)CC[C@H]4[C@H](C)CC[C@@H]1[C@@]24OO3,-,1.663,"falling, partial curve, poor fit"
CC1COc2c(N3CCN(C)CC3)c(F)cc3c(=O)c(C(=O)O)cn1c23 (centres unmarked),active = Z-AUC below -0.8 in all three lines,11.77,"falling, partial curve"
O=C(O)CNC(=O)c1c(O)c2ccccc2n(Cc2ccccc2)c1=O,-,5.258,"falling, partial curve, poor fit"
CC(C)=CCCC(C)=CCCC(C)=CCSc1ccccc1C(=O)O,active = Z-AUC below -0.8 in all three lines,6.619,"falling, partial curve"
O=C(N[C@H]1CN2CCC1CC2)c1ccc(Cl)cc1,-,4.176,"falling, full curve"
NC(=O)c1cccc2cn(-c3ccc([C@@H]4CCCNC4)cc3)nc12,active = Z-AUC below -0.8 in all three lines,16.63,"falling, partial curve"
C=C1C(=O)O[C@H]2[C@@H]1CCC(C)=CCC[C@@]1(C)O[C@@H]21,active = Z-AUC below -0.8 in all three lines,26.35,"falling, single point"
CC(C)NCC(O)COc1ccc(COCCOC(C)C)cc1 (centres unmarked),active = Z-AUC below -0.8 in all three lines,5.258,-
COc1ccc(CC2SC(=O)NC2=O)cc1C(=O)NCc1ccc(C(F)(F)F)cc1 (centres unmarked),active = Z-AUC below -0.8 in all three lines,26.35,"falling, partial curve, poor fit"
COc1cc2nc(-c3cc(F)ccc3O)nc(N[C@@H]3CNC[C@@H]3C(C)(C)O)c2cc1OC,active = Z-AUC below -0.8 in all three lines,26.35,"falling, single point"
c1ccc(CNc2nc(NCc3ccccc3)c3ccccc3n2)cc1,active = Z-AUC below -0.8 in all three lines,18.65,"falling, partial curve"
CC(C)(O)C(=O)Nc1ccc([N+](=O)[O-])c(C(F)(F)F)c1,-,20.93,"falling, partial curve"
Cc1cc2c(C(C)C)c(O)c(O)c(C=O)c2c(O)c1-c1c(C)cc2c(C(C)C)c(O)c(O)c(C=O)c2c1O,active = Z-AUC below -0.8 in all three lines,26.35,"falling, single point"
CC(=O)Nc1sc2c(c1-c1nc3ccccc3s1)CNC2,active = Z-AUC below -0.8 in all three lines,10.49,"falling, partial curve"
CN1C[C@H]2c3ccccc3Oc3ccc(Cl)cc3[C@@H]2C1,active = Z-AUC below -0.8 in all three lines,37.22,"falling, partial curve, poor fit"

The last 2 entries again:

compound	tested on / at	fitted potency (µM)	curve as filed
CC(=O)Nc1sc2c(c1-c1nc3ccccc3s1)CNC2	active = Z-AUC below -0.8 in all three lines	10.49	falling, partial curve
CN1C[C@H]2c3ccccc3Oc3ccc(Cl)cc3[C@@H]2C1	active = Z-AUC below -0.8 in all three lines	37.22	falling, partial curve, poor fit

Source: PubChem BioAssay AID1963991 (NCATS, 2024).